Data reported in patent publication US20110294663A1, “Herbicidal composition for tolerant or resistant corn crops” (priority 2010, published 2011).
At least one read-out could not be matched to a standard name with certainty.

Test system: Eleusine indica
Assay: Greenhouse trial: herbicidal efficacy, Eleusine indica
Format: in vivo
Details: post-emergence, 1-2-leaf stage, scoring 14 days after treatment, g of ai/ha: A1.1 100
Experimental: The trials were carried out under greenhouse conditions (test pots, diameter 8 cm, spray application using 300 l of water/hectare, 2 repetitions, 6 to 8 plants per pot).
Application was by post-emergence treatment; the species of the harmful plants and their stage of growth at the time of treatment are indicated in the individual results tables. The application rates of the herbicidally active compounds used on their own or in combinations are likewise listed in the individual results tables.
Scoring was by visual comparison of the treated with the untreated control pots (0-100% scale, 14 d after the application).
4.2 Abbreviations used in Tables 4 to 8 application rate g/ai=application rate in grams of active compound per hectare • ai=active ingredient (of an active compound content of 100%) • GA=glufosinate-ammonium • GA-tolerant=corn which is tolerant to GA (GMO: LL corn) • E^C=expected value according to Colby, (E^C=A+B−A×B/100)= • =for ternary combinations: (A+B)+C−(A+B)×C/100 • Δ=difference (%) between observed value -%- vs. expected value (%) (observed value minus expected value) • examination: —observed values for (A), (B) and (A)+(B) in % • scoring: —observed value (%) greater>than E^C/E^A: ->synergism (+A) • —observed value (%) equal to =E^C/E^A->additive effect (+−Δ) • —observed value (%) smaller<than E^A/E^C->antagonism (−Δ)

CP(=O)(O)CCC(N)C(=O)O (centres unmarked) [(A1.1) GA, glufosinate-ammonium]
Herbicidal efficacy % Eleusine indica (Table 4, B1.1 2.5 alone, 5 in combinations, C1 2.5, C2 1.25, C10 250, C4 50, C5 1, C6 2): 60% | Herbicidal efficacy % Eleusine indica (Table 8, B1.1 5, C8 0.5, isoxadifen 100, cyprosulfamide 100, C′ = isoxadifen in r19, cyprosulfamide in r23): 60%
